Reference: publication PMC7757041
No constants are given. Whether binding was seen depends on the method and setting. In cells and extracts the contact can be indirect. Binding calls can cover weak binding; strength is not graded here.

Chains of the proteins cited; added tags and fusions are not shown. Lines headed by an entry give the natural chain unless they say otherwise; changes in a name come on top. Residues count along the entry.
UniProt P35613: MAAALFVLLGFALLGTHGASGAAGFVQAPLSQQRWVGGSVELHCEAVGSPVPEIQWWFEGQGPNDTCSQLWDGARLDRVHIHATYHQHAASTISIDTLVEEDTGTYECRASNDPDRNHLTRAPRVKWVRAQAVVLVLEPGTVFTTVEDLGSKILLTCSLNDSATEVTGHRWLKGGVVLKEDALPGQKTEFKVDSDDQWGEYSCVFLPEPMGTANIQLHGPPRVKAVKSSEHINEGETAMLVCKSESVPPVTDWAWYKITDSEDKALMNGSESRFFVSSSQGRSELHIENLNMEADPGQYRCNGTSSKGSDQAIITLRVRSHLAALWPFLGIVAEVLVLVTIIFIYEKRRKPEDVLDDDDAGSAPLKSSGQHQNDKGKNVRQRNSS
UniProt P10809, residues 27-573: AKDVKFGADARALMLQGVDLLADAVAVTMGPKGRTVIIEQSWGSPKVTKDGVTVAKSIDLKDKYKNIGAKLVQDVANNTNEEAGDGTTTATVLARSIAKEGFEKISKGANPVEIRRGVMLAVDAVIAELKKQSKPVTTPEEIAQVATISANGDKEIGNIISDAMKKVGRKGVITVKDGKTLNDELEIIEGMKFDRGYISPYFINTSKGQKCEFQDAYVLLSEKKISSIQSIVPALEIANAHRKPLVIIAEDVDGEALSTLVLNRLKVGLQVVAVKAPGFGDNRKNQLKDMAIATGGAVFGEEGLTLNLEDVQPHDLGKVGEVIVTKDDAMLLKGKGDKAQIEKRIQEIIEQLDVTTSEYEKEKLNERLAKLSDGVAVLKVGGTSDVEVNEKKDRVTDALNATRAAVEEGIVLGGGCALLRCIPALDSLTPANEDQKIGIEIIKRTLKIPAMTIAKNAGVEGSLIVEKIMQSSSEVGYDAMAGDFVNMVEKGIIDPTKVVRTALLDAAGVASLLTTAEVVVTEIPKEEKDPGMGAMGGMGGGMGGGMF

Molecular target: CD147 (UniProt P35613)
Assay: co-IP; exogenous proteins; cells lysed in NP40 lysis buffer on ice 30 min; 1.5 ug antibody, protein A/G agarose beads, overnight at 4 °C; beads rinsed 3 times with NP40 buffer

binding: binds
Substance: heat shock protein 60 (from UniProt P10809 27-573)
